Assay results taken from PubChem BioAssay AID192 (DTP/NCI, 2004).
The list shows only some results of the screen, not a fair sample: it is rich in T/C values a quarter to a half above the control, in often repeated tests (any T/C) and in doses without a T/C. Other doses and runs of a compound stand elsewhere. T/C gives the treated animals as a percentage of the vehicle group. Some entries give survivors of the animals treated and no T/C: the source files T/C as zero there, which appears to mark a toxic dose or a test without result, not a measured value. Some survivor counts are full or nearly so, which does not show that the dose was tolerated: survival well below the control is almost never listed, so the zero probably covers shortened survival too. Survivors were counted at the toxicity check, usually on the fifth day, unless a day is given; later deaths do not show. Schedule codes are those of the source, taken here to give the interval after Q, in days (D) or hours (H), and the number of doses after X. Some entries were tested several times; the values are given in rising order. Signs of the kind (2×) count equal records among those shown. Where survival is the endpoint, this PubChem deposit counts one and a half times the control or more as active, and values a quarter to a half above the control carry no call in these data; other NCI protocols may use other cut-offs. Some T/C values are followed by the survivors on the day toxicity was checked, most often the fifth; without a count, all were alive then.

Tested on: BDF1 mice, B16 melanoma ip, median survival T/C
Assay: NCI In Vivo Anticancer Drug Screen. Data for tumor model B16 Melanoma (intraperitoneal) in B6D2F1 (BDF1) mice
Conditions: T/C endpoint: median survival time, higher T/C = longer survival
Method in brief: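 Values are ratios of treated (T) to vehicle-control (C) measurements of survival or tumor size in tumor-bearing mice.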

In the case of `O=C(O)c1c(-c2ccccc2)[nH]c2cc(Cl)ccc2c1=O`, the survivor count (dose: 100.0 mg/kg/injection, schedule: Q01DX005 (ip), vehicle: saline) is reported as 5 of 10, the survivor count (dose: 100.0 mg/kg/injection, schedule: Q01DX009 (ip), vehicle: saline with Tween-80) is reported as 9 of 10 and the survivor count (dose: 200.0 mg/kg/injection, schedule: Q01DX009 (ip), vehicle: saline with Tween-80) is reported as 0 of 10. The survivor count (dose: 400.0 mg/kg/injection, schedule: Q01DX005 (ip), vehicle: saline) was 0 of 10, the survivor count (dose: 400.0 mg/kg/injection, schedule: Q01DX009 (ip), vehicle: saline with Tween-80) was 1 of 10 and the survivor count (dose: 400.0 mg/kg/injection, schedule: Q04DX003 (ip), vehicle: saline with Tween-80) was 7 of 10.
`N[C@@H](Cc1ccc(N(CCCl)CCCl)cc1)C(=O)O` was tested, and the T/C (dose: 0.25 mg/kg/injection, schedule: Q01DX009 (ip), vehicle: Klucel (hydroxypropylcellulose) (HPC)) was 129 and 130 % of control, the T/C (dose: 0.25 mg/kg/injection, schedule: Q01DX009 (ip), vehicle: saline) was 133 % of control and the T/C (dose: 0.5 mg/kg/injection, schedule: Q01DX009 (ip), vehicle: Klucel (hydroxypropylcellulose) (HPC)) was 127, 143, 162, 181 % of control. For the same compound, the T/C (dose: 0.5 mg/kg/injection, schedule: Q01DX009 (ip), vehicle: saline with Tween-80) was 146 % of control, the T/C (dose: 0.5 mg/kg/injection, schedule: Q01DX009 (ip), vehicle: saline, evaluated on day 45) was 145 % of control and the T/C (dose: 0.5 mg/kg/injection, schedule: Q01DX009 (ip), vehicle: saline, evaluated on day 60) was 114, 132, 133 [9 of 10 alive], 140, 141, 150, 166, 179, 181, 237 % of control. For the same compound, the T/C (dose: 0.7 mg/kg/injection, schedule: Q01DX009 (ip), vehicle: saline) was 145 % of control, the T/C (dose: 1.0 mg/kg/injection, schedule: Q01DX009 (ip), vehicle: Klucel (hydroxypropylcellulose) (HPC)) was 141, 167, 187, 210 % of control and the T/C (dose: 1.0 mg/kg/injection, schedule: Q01DX009 (ip), vehicle: saline, evaluated on day 45) was 175 % of control. The T/C (dose: 1.0 mg/kg/injection, schedule: Q01DX009 (ip), vehicle: saline, evaluated on day 60) was 130 [5 of 6 alive], 162, 163 [9 of 10 alive], 166, 167, 173, 179, 203, 205, 221, 274 % of control, the T/C (dose: 1.5 mg/kg/injection, schedule: Q04DX003 (ip), vehicle: Klucel (hydroxypropylcellulose) (HPC)) was 148 % of control and the T/C (dose: 2.0 mg/kg/injection, schedule: Q01DX009 (ip), vehicle: Klucel (hydroxypropylcellulose) (HPC)) was 170 [7 of 8 alive], 198, 272, 279 % of control. For the same compound, the T/C (dose: 2.0 mg/kg/injection, schedule: Q01DX009 (ip), vehicle: saline, evaluated on day 10) was 189 % of control, the T/C (dose: 2.0 mg/kg/injection, schedule: Q01DX009 (ip), vehicle: saline, evaluated on day 45) was 203 % of control and the T/C (dose: 2.0 mg/kg/injection, schedule: Q01DX009 (ip), vehicle: saline, evaluated on day 60) was 175, 177, 192, 193, 206, 220, 241, 243, 257 % of control. For the same compound, the survivor count (dose: 2.0 mg/kg/injection, schedule: Q01DX009 (ip), vehicle: saline) was 10 of 10 and 6 of 6, the T/C (dose: 2.0 mg/kg/injection, schedule: Q04DX003 (ip), vehicle: saline) was 149 % of control and the T/C (dose: 2.2 mg/kg/injection, schedule: Q01DX005 (ip), vehicle: saline) was 129 % of control. The T/C (dose: 2.5 mg/kg/injection, schedule: Q01DX001 (ip), vehicle: water) was 127 % of control, the T/C (dose: 3.0 mg/kg/injection, schedule: Q04DX003 (ip), vehicle: Klucel (hydroxypropylcellulose) (HPC)) was 148 % of control and the T/C (dose: 3.6 mg/kg/injection, schedule: Q01DX005 (ip), vehicle: saline) was 134 % of control. The T/C (dose: 4.0 mg/kg/injection, schedule: Q01DX009 (ip), vehicle: Klucel (hydroxypropylcellulose) (HPC)) was 108, 137, 220, 236 % of control, the T/C (dose: 4.0 mg/kg/injection, schedule: Q01DX009 (ip), vehicle: saline, evaluated on day 45) was 122 % of control and the T/C (dose: 4.0 mg/kg/injection, schedule: Q01DX009 (ip), vehicle: saline, evaluated on day 60) was 114, 115, 149 [9 of 10 alive], 182, 205 [9 of 10 alive], 250, 254, 278 % of control. The survivor count (dose: 4.0 mg/kg/injection, schedule: Q01DX009 (ip), vehicle: saline) was 10 of 10 and 6 of 6, the T/C (dose: 5.0 mg/kg/injection, schedule: Q01DX001 (ip), vehicle: water) was 148 % of control and the T/C (dose: 6.0 mg/kg/injection, schedule: Q01DX009 (ip), vehicle: Klucel (hydroxypropylcellulose) (HPC)) was 125 % of control. The survivor count (dose: 6.0 mg/kg/injection, schedule: Q01DX009 (ip), vehicle: saline) was 6 of 6, the survivor count (dose: 8.0 mg/kg/injection, schedule: Q01DX009 (ip), vehicle: Klucel (hydroxypropylcellulose) (HPC)) was 10 of 10 and 8 of 8 and the survivor count (dose: 8.0 mg/kg/injection, schedule: Q01DX009 (ip), vehicle: saline with Tween-80) was 10 of 10. For the same compound, the survivor count (dose: 8.0 mg/kg/injection, schedule: Q01DX009 (ip), vehicle: saline) was 1 of 10, 3 of 6, 9 of 10, 10 of 10 (2×), the survivor count (dose: 9.0 mg/kg/injection, schedule: Q01DX009 (ip), vehicle: carboxymethylcellulose (CMC)) was 10 of 10 and the survivor count (dose: 12.0 mg/kg/injection, schedule: Q01DX009 (ip), vehicle: carboxymethylcellulose (CMC)) was 10 of 10 and 6 of 6. For the same compound, the survivor count (dose: 12.0 mg/kg/injection, schedule: Q01DX009 (ip), vehicle: saline) was 10 of 10, the survivor count (dose: 16.0 mg/kg/injection, schedule: Q01DX009 (ip), vehicle: saline) was 9 of 10 and 10 of 10 and the survivor count (dose: 20.0 mg/kg/injection, schedule: Q01DX001 (ip), vehicle: Klucel (hydroxypropylcellulose) (HPC)) was 10 of 10. For the same compound, the survivor count (dose: 20.0 mg/kg/injection, schedule: Q01DX001 (ip), vehicle: water) was 10 of 10, the survivor count (dose: 24.0 mg/kg/injection, schedule: Q01DX009 (ip), vehicle: carboxymethylcellulose (CMC)) was 5 of 6 and the survivor count (dose: 30.0 mg/kg/injection, schedule: Q01DX001 (ip), vehicle: water) was 0 of 10.
